Laboratory results reported in patent publication US20100055065A1, “AGENT FOR INHIBITING PRODUCTION OF HEPATITIS C VIRUS AND ITS USE” (MIYAZAKI PREFECTURAL INDUSTRIAL SUPPORT FOUNDATION, priority 2008, published 2010).
At least one structure is not confirmed: it was looked up by name or label, or the drawing left a doubt.

Tested on: HCV replicon
Assay: HCV replication suppressive activity test (replicon assay, luciferase)
Format: cell-based, Hepatitis C virus
Conditions: replicon cell assay
Protocol: The HCV-replicon cell line was established by transducing sub-genomic RNA into human hepatoma Huh-7 cell cytoplasm. The sub-genomic RNA was prepared by replacing the translated region of HCV genome RNA structural proteins with firefly luciferase gene, internal ribosome entry site (IRES) of the encephalomyocarditis virus and neomycin phosphotransferase gene. The cell line obtained was used for assessment of production of HCV replicon RNA. The production quantity of HCV replicon RNA was measured by the luciferase assay method. (Lohmann et al., Science 285, (1999) 110; Sakamoto et al. Nat. Chem. Biol. 1, (2005) 333)
In order to determine replication quantity of HCV-RNA, luciferase genes from firefly were transduced into HCV-RNA as a reporter gene. […]
The test was carried out in such a way that the HCV replicon cells were cultured for 72 hours after adding test samples in different concentrations. The Quantity of the luciferase activity was determined by the Steady-Glo Luciferase Assay System (Promega) according to the manufacture's instructions and the luminescence was measured by DTX 800 Multimode Detector (Beckman). In this test, the replication inhibitory activity is expressed as a concentration of samples required for inhibiting 50 percents of the replication of HCV replicon cell (IC50). […]

C[C@@H]1O[C@@H](OC[C@H]2O[C@@H](Oc3c(-c4ccc(O)c(O)c4)oc4cc(O)cc(O)c4c3=O)[C@H](O)[C@@H](O)[C@@H]2O)[C@H](O)[C@H](O)[C@H]1O [rutin] was tested. Which “HCV replication suppressive (inhibitory) activity, in words” value did it give?
The value was “seem not to have the inhibition activity”.
